Data on two sequences can be found in US20130197070.

Sequences of proteins named here, by UniProt entry; tags and fusion partners are left off. Residues count along the entry.
UniProt P30530, 26-894: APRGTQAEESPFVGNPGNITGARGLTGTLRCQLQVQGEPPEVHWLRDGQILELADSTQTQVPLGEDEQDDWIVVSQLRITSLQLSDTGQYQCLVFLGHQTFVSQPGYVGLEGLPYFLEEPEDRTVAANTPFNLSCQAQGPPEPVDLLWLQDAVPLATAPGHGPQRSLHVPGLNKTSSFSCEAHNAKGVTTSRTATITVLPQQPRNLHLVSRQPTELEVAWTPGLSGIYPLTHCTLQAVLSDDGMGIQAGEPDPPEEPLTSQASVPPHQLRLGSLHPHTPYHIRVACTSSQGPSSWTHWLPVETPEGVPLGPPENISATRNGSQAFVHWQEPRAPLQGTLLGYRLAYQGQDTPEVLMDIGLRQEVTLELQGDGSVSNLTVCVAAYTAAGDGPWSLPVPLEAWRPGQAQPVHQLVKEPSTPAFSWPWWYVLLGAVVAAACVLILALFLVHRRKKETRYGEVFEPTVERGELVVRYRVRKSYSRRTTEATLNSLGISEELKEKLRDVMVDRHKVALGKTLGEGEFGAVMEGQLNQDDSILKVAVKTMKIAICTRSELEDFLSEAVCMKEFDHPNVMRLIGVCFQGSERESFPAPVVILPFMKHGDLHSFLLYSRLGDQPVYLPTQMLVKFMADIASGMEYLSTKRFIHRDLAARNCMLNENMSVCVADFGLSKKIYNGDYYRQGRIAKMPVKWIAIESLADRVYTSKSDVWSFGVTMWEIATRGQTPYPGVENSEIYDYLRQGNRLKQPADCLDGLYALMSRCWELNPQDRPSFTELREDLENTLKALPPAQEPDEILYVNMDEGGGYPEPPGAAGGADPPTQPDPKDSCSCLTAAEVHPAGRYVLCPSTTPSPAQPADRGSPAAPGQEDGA

For some assays here: Results from cells or extracts need not show a direct contact. For some assays here: Negatives hold for the conditions tested. For some assays here: For at least one entry, the source does not settle the construct or the ends of the probe.

Data set [1] has as its target Axl receptor tyrosine kinase (cell surface) (Homo sapiens) (UniProt P30530). The data set is described as follows: activity in cells. To be noted: 2'-F on all pyrimidines; 200 nM aptamer inhibits basal and Gas6-induced Axl and ERK phosphorylation in U87MG cells; protein on the cell surface.
Data set [2] has the same target. The data set is described as follows: binding assay. As to conditions: 2'-F pyrimidines; negative control, background binding to cells at 50 nM, polyinosine competitor, RT; protein on the cell surface; label: 5'-32P.

For “AUGAUCAAUCGCCUCAAUUCGACAGGAGGCUCAC [GL21 52-85 (GL21.T)]”, in data set [1], the “functional effect of the aptamer” value was “active”.
Consider “UUCGUACCGGGUAGGUUGGCUUGCACAUAGAACGUGUCA [unrelated aptamer]”, for which the binding result in data set [2] is “no binding”.
